# Values from PubChem BioAssay AID1224827 (NIAID, 2016)
# Aim: 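Confirm genes whose knock-down changes LPS-driven TNF promoter activity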 (follow-up of hits)
# Cells: RAW264.7 G9 mouse macrophage reporter clone
# Reagents: single siRNA against mouse genes, 100 nM siRNA
# Time to read-out: siRNA for 2 days, then LPS about 16 h
# Challenge: bacterial lipopolysaccharide (LPS), 10 ng/ml, cells fixed after overnight (about 16 h) stimulation
# Measured: 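TNF promoter reporter red fluorescence in nuclei, background subtracted, normalised per plate and to non-targeting control siRNA, as z-scores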
# Scale: TNF reporter z-score, mean and TNF reporter z-score: higher = stronger Tnf promoter reporter signal; gene median z, three same-vendor siRNAs: higher = stronger Tnf reporter signal for the gene
# Rule for the call: 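An siRNA is called active when its mean z-score over replicates is at least +2 or at most -2; control wells get no call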
# Shown is an unselected part of about 3,800 deposited reagents. Over the whole deposit, about 2,200 (57%) were called active. 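Active means a strong reporter change in either direction; calls are per siRNA, not per gene; qiagen siRNAs gave weaker effects.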 Entries without a mark were called inactive. Reagents against one gene are numbered here. No sequences are given here.
gene,reagent,"TNF reporter z-score, mean","gene median z, three same-vendor siRNAs","TNF reporter z-score, repeat 1","TNF reporter z-score, repeat 2"
Hoxc8 (homeobox C8),1,2.25 (active),-3.54,1.6,2.9
Hoxc8 (homeobox C8),2,-3.76 (active),-3.54,-3.8,-3.72
Hoxc8 (homeobox C8),3,-3.83 (active),-3.54,-3.35,-4.31
Hoxc8 (homeobox C8),4,5.22 (active),3.08,8.55,1.88
Hoxc8 (homeobox C8),5,2.94 (active),3.08,4.27,1.61
Hoxc8 (homeobox C8),6,1.92,3.08,4.39,-0.546
Fstl4 (follistatin-like 4),1,-3.51 (active),-3.87,-3.92,-3.11
Fstl4 (follistatin-like 4),2,-3.74 (active),-3.87,-4.43,-3.06
Fstl4 (follistatin-like 4),3,-4.44 (active),-3.87,-5.06,-3.82
Fstl4 (follistatin-like 4),4,5.37 (active),2.45,8.33,2.42
Fstl4 (follistatin-like 4),5,2.82 (active),2.45,5.33,0.321
Fstl4 (follistatin-like 4),6,1.03,2.45,2.48,-0.415
Ctnna1 (catenin alpha 1),1,0.469,-2.5,-0.718,1.66
Ctnna1 (catenin alpha 1),2,-2.75 (active),-2.5,-4.13,-1.37
Ctnna1 (catenin alpha 1),3,-3.84 (active),-2.5,-4.04,-3.64
Ctnna1 (catenin alpha 1),4,1.87,-0.532,2.79,0.945
Ctnna1 (catenin alpha 1),5,-0.532,-0.532,-0.329,-0.736
Ctnna1 (catenin alpha 1),6,-2.87 (active),-0.532,-3.41,-2.34
Nfyb (nuclear transcription factor-Y beta),1,2.15 (active),-0.215,-0.353,4.65
Nfyb (nuclear transcription factor-Y beta),2,-0.334,-0.215,-1.26,0.594
Nfyb (nuclear transcription factor-Y beta),3,-0.694,-0.215,-1.31,-0.0758
Nfyb (nuclear transcription factor-Y beta),4,1.67,-0.237,3.3,0.0416
Nfyb (nuclear transcription factor-Y beta),5,0.281,-0.237,1.7,-1.13
Nfyb (nuclear transcription factor-Y beta),6,-2.5 (active),-0.237,-4.49,-0.516
1700010I14Rik (RIKEN cDNA 1700010I14 gene),1,1.66,-3.48,1.89,1.43
1700010I14Rik (RIKEN cDNA 1700010I14 gene),2,-3.48 (active),-3.48,-4.03,-2.92
1700010I14Rik (RIKEN cDNA 1700010I14 gene),3,-4.26 (active),-3.48,-4.47,-4.06
1700010I14Rik (RIKEN cDNA 1700010I14 gene),4,2.27 (active),1.67,4.27,0.269
1700010I14Rik (RIKEN cDNA 1700010I14 gene),5,2.35 (active),1.67,4.88,-0.168
1700010I14Rik (RIKEN cDNA 1700010I14 gene),6,1.38,1.67,3.07,-0.314
Il17re (interleukin 17 receptor E),1,1.12,-1.63,-0.0858,2.33
Il17re (interleukin 17 receptor E),2,-1.35,-1.63,0.475,-3.17
Il17re (interleukin 17 receptor E),3,-4.1 (active),-1.63,-4.5,-3.71
Il17re (interleukin 17 receptor E),4,1.85,-0.155,4.12,-0.421
Il17re (interleukin 17 receptor E),5,0.377,-0.155,0.642,0.112
Il17re (interleukin 17 receptor E),6,-3.5 (active),-0.155,-4.27,-2.73
Or8k35 (olfactory receptor family 8 subfamily K member 35),1,1.08,-0.58,2.84,-0.687
Or8k35 (olfactory receptor family 8 subfamily K member 35),2,0.869,-0.58,2.21,-0.473
Or8k35 (olfactory receptor family 8 subfamily K member 35),3,-1.67,-0.58,-1.19,-2.16
